Source: patent US7211424B1, “Mammalian Subtilisin/kexin isozyme SKI-1: a proprotein convertase with a unique cleavage specificity” (Institut de Recherches Cliniques de Montreal, priority 1999, dated 2007)
These are yes or no findings as the source states them, for the method shown. For some assays here: Binding seen in cells or lysates may run through a third protein. Some results given as binding are weak or reduced against the parent protein; the word gives no strength.

Key:
BTMD-SKI-1 [1] = biological target: T1, BTMD-SKI-1 (human, UniProt Q14703 187-997); test: co-purification on metal affinity column, Western blot with Ab:S plus Ab:P
T1 construct: The construct encodes aa 1-997 plus hexa-His; It was secreted from VV-infected BSC40 or LoVo cells and used as concentrated medium or after metal chelation purification; The secreted enzyme stays associated with the ~14 kDa prosegment fragment; also called bSKI-1; BTMD-hSKI-1
T1 sequence: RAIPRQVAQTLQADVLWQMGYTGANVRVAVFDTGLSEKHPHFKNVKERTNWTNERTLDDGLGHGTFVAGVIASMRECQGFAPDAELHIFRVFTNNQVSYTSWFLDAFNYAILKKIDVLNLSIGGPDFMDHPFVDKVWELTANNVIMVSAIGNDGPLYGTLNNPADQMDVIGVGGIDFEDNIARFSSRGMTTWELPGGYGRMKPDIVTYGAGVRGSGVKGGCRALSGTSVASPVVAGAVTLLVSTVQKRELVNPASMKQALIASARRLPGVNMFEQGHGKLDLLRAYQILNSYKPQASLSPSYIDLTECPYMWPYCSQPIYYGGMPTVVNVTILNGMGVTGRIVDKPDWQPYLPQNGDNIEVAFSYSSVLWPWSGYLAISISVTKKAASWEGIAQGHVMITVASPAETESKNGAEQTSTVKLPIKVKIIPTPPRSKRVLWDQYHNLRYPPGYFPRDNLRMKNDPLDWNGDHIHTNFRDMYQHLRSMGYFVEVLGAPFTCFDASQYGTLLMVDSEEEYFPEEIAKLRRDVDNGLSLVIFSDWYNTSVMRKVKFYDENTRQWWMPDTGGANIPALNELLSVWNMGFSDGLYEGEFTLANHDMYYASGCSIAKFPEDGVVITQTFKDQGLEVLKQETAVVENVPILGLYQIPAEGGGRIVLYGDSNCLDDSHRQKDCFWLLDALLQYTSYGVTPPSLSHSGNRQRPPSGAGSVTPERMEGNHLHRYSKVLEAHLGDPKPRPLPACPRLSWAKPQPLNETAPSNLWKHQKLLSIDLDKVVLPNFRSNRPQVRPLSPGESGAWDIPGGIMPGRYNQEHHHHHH

BTMD-SKI-1 [2] = biological target: T1, BTMD-SKI-1; test: co-purification on metal affinity column, Western blot
BTMD-SKI-1 [3] = biological target: T1, BTMD-SKI-1; test: co-immunoprecipitation from media of [35S]Cys-labelled LoVo cells with Ab:P or Ab:S, denaturing conditions
[4] = biological target: T2, 98 kDa shed form of SKI-1 (sSKI-1) (human, UniProt Q14703 187-996); test: as above
T2 sequence: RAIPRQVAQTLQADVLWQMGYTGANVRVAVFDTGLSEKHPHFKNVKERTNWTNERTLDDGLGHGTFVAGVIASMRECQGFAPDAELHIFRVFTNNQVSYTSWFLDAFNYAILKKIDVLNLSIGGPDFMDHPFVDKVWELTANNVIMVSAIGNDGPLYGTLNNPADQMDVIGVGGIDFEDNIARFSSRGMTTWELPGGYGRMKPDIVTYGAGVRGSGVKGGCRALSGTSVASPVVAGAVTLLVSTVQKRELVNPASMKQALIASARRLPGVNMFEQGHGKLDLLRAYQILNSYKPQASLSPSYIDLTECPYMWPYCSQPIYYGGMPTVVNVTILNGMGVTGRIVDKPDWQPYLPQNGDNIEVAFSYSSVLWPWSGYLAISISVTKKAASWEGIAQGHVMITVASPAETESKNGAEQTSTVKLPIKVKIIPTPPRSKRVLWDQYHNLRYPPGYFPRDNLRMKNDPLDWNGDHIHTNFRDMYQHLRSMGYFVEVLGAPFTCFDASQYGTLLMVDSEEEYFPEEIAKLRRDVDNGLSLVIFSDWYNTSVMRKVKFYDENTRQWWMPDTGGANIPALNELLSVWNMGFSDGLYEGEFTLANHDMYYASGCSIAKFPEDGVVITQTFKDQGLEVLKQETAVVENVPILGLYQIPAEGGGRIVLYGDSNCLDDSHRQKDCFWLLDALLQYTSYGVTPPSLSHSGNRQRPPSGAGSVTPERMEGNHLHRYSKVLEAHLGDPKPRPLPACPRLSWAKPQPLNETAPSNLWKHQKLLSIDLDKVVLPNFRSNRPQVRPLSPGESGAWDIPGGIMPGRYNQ

[5] = biological target: T2, 98 kDa shed form of SKI-1 (sSKI-1); test: the complex survives up to 1 M NaCl in immunoprecipitation and metal chelation purification; it dissociates only in RP-HPLC

Measured: binding

B1: ~14 kDa SKI-1 prosegment fragment (protein)
chain: GKKHLGDRLEKKSFEKAPCPGCSHLTLKVEFSSTVVEYEYIVAFNGYFTAKARNSFISSALKSSEVDNWRIIPRNNPSSDYPSDFEVIQIKEKQKAGLLTLEDHPNIKRVTPQRKVFRSL
binds: all assays above
